These are yes or no findings as the source states them, for the method shown.
Biological target: T1, KLK8 (UniProt O60259 33-260)
T1 construct: Kallikrein 8 (KLK8); construct and source are in the Supporting Information
T1 sequence (looked up): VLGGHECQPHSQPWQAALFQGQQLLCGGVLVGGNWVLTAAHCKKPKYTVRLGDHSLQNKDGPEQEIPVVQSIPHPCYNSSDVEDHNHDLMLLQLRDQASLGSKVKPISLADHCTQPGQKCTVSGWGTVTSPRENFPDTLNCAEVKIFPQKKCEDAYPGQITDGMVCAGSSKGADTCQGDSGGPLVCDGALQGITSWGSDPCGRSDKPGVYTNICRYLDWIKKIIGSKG
Assay: enzyme inhibition assay (fluorogenic substrate); selectivity: inhibition of KLK7, KLK8 or KLK14 activity by the peptide, n = 3; substrates and conditions in the Supporting Information; both purified

GFCTRSNPPECWPN (head-to-tail cyclised backbone; oxidised (disulfide)) [LEKTI-grafted SFTI analogue, lead 7]
binding: no binding (tested: >1 μm)

Source: article PMC12670400, “LEKTI-Grafted Sunflower Trypsin Inhibitor: A Potential Therapeutic for Skin Diseases” (Journal of Medicinal Chemistry, 2025)
